# The entries are a selection whose mix differs from that of the whole data set.
# By UniProt entry, the sequences of proteins in these tests, tags left out.
# furin, P09958, UniProt P09958, whole entry: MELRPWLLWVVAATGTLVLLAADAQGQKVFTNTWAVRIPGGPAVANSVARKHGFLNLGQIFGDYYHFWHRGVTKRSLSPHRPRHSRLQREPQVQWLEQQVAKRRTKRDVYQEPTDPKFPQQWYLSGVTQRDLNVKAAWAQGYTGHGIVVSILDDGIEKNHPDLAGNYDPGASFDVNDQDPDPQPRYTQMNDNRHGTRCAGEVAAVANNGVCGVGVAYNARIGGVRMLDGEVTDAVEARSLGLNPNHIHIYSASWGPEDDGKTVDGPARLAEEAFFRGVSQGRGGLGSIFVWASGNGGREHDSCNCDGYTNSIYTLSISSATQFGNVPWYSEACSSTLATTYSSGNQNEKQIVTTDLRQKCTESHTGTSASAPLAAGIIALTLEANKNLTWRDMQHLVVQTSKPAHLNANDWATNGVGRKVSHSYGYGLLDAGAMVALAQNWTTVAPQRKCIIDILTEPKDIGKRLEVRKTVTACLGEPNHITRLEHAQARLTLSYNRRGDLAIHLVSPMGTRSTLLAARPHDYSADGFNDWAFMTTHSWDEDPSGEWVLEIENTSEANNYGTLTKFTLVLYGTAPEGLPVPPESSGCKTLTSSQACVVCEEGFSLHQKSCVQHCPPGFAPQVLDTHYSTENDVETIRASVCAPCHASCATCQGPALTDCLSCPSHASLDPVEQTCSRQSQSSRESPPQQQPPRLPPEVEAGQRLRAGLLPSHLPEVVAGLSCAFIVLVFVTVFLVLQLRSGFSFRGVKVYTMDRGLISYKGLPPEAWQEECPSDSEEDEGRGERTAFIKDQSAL
# Target: furin, P09958
# Test: furin cleavage Z-score vs untreated control; higher = more cleavage, active = 3.5 or more, inactive = 1 or less, 8 variable residues between constant flanks
# Outline: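 Purified furin cleaved 8-mer peptides that were fused to a cDNA oligonucleotide and held on magnetic beads by their N-terminus. Each 0.01 ml reaction used a 1:10 enzyme:substrate ratio in 50 mM HEPES pH 7.5 with CaCl2 and NaCl and ran 7.5, 15 or 30 min. Released DNA was adapter-tagged by PCR and sequenced, and read counts gave abundance. The cleavage Z-score came from log counts against furin-free reactions, lowess-adjusted and scaled by median absolute deviation.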
sequence,measurement,setting,value
CAWGRRARRGAGNASASA [FS-316],furin cleavage Z-score,7.5 min,2.44
same,furin cleavage Z-score,15 min,1.83
same,furin cleavage Z-score,30 min,1.6
CARRHRSYSPAGNASASA [FS-2775],furin cleavage Z-score,7.5 min,1.87
same,furin cleavage Z-score,15 min,1.87
same,furin cleavage Z-score,30 min,2.81
CARARRTLGHAGNASASA [FS-1684],furin cleavage Z-score,7.5 min,active: 6.43
same,furin cleavage Z-score,15 min,active: 8.11
same,furin cleavage Z-score,30 min,active: 7.53
CAMEECPQHLAGNASASA [HC40],furin cleavage Z-score,7.5 min,1.74
same,furin cleavage Z-score,15 min,1.43
same,furin cleavage Z-score,30 min,1.19
CAVVPCSMSYAGNASASA [HC2039],furin cleavage Z-score,7.5 min,1.16
same,furin cleavage Z-score,15 min,1.64
same,furin cleavage Z-score,30 min,1.3
CALWHYPCTIAGNASASA [HC468],furin cleavage Z-score,7.5 min,1.54
same,furin cleavage Z-score,15 min,1.52
same,furin cleavage Z-score,30 min,1.36
CAVPQRHRRTAGNASASA [FS-1432],furin cleavage Z-score,7.5 min,active: 10.8
same,furin cleavage Z-score,15 min,active: 9.86
same,furin cleavage Z-score,30 min,active: 9.48
CAMEECSQHFAGNASASA [HC1767],furin cleavage Z-score,7.5 min,2.16
same,furin cleavage Z-score,15 min,1.35
same,furin cleavage Z-score,30 min,1.89
CADHMEECSQAGNASASA [HC1815],furin cleavage Z-score,7.5 min,inactive: -0.251
same,furin cleavage Z-score,15 min,inactive: -0.239
same,furin cleavage Z-score,30 min,inactive: -0.816
CAEHTTPCSGAGNASASA [HC1975],furin cleavage Z-score,7.5 min,inactive: -1.73
same,furin cleavage Z-score,15 min,inactive: -1.12
same,furin cleavage Z-score,30 min,inactive: 0.179
CAKPLRRKRSAGNASASA [FS-260],furin cleavage Z-score,7.5 min,1.71
same,furin cleavage Z-score,15 min,1.32
same,furin cleavage Z-score,30 min,1.94
CANRVAACLRAGNASASA [HC1612],furin cleavage Z-score,7.5 min,1.11
same,furin cleavage Z-score,15 min,2.15
same,furin cleavage Z-score,30 min,1.36
CARSVRCTSHAGNASASA [FS-2609],furin cleavage Z-score,7.5 min,1.25
same,furin cleavage Z-score,15 min,2.37
same,furin cleavage Z-score,30 min,2.41
CAQSSRHRRAAGNASASA [FS-851],furin cleavage Z-score,7.5 min,active: 13.1
same,furin cleavage Z-score,15 min,active: 12.7
same,furin cleavage Z-score,30 min,active: 10.3
CAGLLRSRRNAGNASASA [FS-1199],furin cleavage Z-score,7.5 min,3.08
same,furin cleavage Z-score,15 min,2.57
same,furin cleavage Z-score,30 min,2.61
CAIIIRDQRSAGNASASA [FS-664],furin cleavage Z-score,7.5 min,1.02
same,furin cleavage Z-score,15 min,3.28
same,furin cleavage Z-score,30 min,2.98
CADKRRTKKAAGNASASA [FS-224],furin cleavage Z-score,7.5 min,1.81
same,furin cleavage Z-score,15 min,1.61
same,furin cleavage Z-score,30 min,3.03
CARGPREVSPAGNASASA [FS-2020],furin cleavage Z-score,7.5 min,2.79
same,furin cleavage Z-score,15 min,3.42
same,furin cleavage Z-score,30 min,3.27
CAYRRRHRKHAGNASASA [FS-740],furin cleavage Z-score,7.5 min,3.32
same,furin cleavage Z-score,15 min,2.99
same,furin cleavage Z-score,30 min,2.07

# Nothing new here: an excerpt of the list.
sequence,measurement,setting,value
CAMEECSQHFAGNASASA [HC1767],furin cleavage Z-score,30 min,1.89
CADHMEECSQAGNASASA [HC1815],furin cleavage Z-score,7.5 min,inactive: -0.251
same,furin cleavage Z-score,15 min,inactive: -0.239

# Source: the supplement of paper PMC3545927
